{"source": "paper PMC6295285", "about": "(Pharmaceutical research, 2018)", "origin": "cited, not measured here", "test_system": "hOCT2", "details": "read-out: IC50 for hOCT2 obtained previously by others; cited from earlier work", "note": "pIC50: −log10 of the molar value."}
{"smiles": "Cc1ccc(NC(=O)c2ccc(CN3CCN(C)CC3)cc2)cc1Nc1nccc(-c2cccnc2)n1", "note": "[Imatinib]", "values": [{"measurement": "pIC50", "value": 5.24}]}
